PubChem BioAssay AID652243 – Drosophila RNAi Screening Center | 2013
In all, the deposit lists about 24,000 reagents; shown is an unselected part of those that have a named target and a result. Of all reagents, 246 (1%) were called active. 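Plates not normalised; calls are printed but the firefly/Renilla ratio behind them is not deposited; fold cut for lowering reported inconsistently.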 The raw values are shown without normalisation. The numbers tell different reagents against one gene apart. Not stated in the record: the amount of reagent.

- Purpose: 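Fly genes required for human androgen receptor driven transcription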 (primary screen)
- Cells: Drosophila S2R+ cells
- Reagents: long dsRNA against Drosophila genes
- Timing: 72 h (48 h, then 24 h hormone)
- Conditions: synthetic androgen R1881 at 10 nM for 24 h
- Detection: 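Firefly light from an androgen-responsive reporter and Renilla control light per well, raw and unnormalised, for each of two replicates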
- Direction: firefly reporter light: higher = more light from androgen-responsive reporter; Renilla control light: higher = more constitutive control signal (cell number, transfection)
- Hit rule: 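Hit when the log firefly-to-Renilla ratio dropped or increased by a fixed fold versus the mean of GFP or LacZ controls across duplicate plates; lowering cut given as 1.5 and as 3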
- Calls: active = hit: reporter lowered or raised; inactive = no hit

CG11883
- firefly reporter light, replicate 1: 9.71e5
- firefly reporter light, replicate 2: 9.35e5
- Renilla control light, replicate 1: 1.62e6
- Renilla control light, replicate 2: 1.59e6
- outcome: inactive

Scp2 #1
- firefly reporter light, replicate 1: 2.16e5
- firefly reporter light, replicate 2: 2.45e5
- Renilla control light, replicate 1: 4.20e5
- Renilla control light, replicate 2: 4.14e5
- outcome: inactive

Scp2 #2
- firefly reporter light, replicate 1: 1.57e5
- firefly reporter light, replicate 2: 1.33e5
- Renilla control light, replicate 1: 2.45e6
- Renilla control light, replicate 2: 1.73e6
- outcome: inactive

CG12538 #1
- firefly reporter light, replicate 1: 1.06e5
- firefly reporter light, replicate 2: 1.16e5
- Renilla control light, replicate 1: 2.06e6
- Renilla control light, replicate 2: 1.96e6
- outcome: inactive

CG12538 #2
- firefly reporter light, replicate 1: 7.71e5
- firefly reporter light, replicate 2: 7.53e5
- Renilla control light, replicate 1: 1.23e6
- Renilla control light, replicate 2: 1.24e6
- outcome: inactive

CG32277
- firefly reporter light, replicate 1: 1.65e5
- firefly reporter light, replicate 2: 1.50e5
- Renilla control light, replicate 1: 1.14e6
- Renilla control light, replicate 2: 1.15e6
- outcome: inactive

Ordered by “Renilla control light, replicate 2” (lowest first): some entries from above.
CG32277
- firefly reporter light, replicate 1: 1.65e5
- firefly reporter light, replicate 2: 1.50e5
- Renilla control light, replicate 1: 1.14e6
- Renilla control light, replicate 2: 1.15e6
- outcome: inactive

CG12538 #2
- firefly reporter light, replicate 1: 7.71e5
- firefly reporter light, replicate 2: 7.53e5
- Renilla control light, replicate 1: 1.23e6
- Renilla control light, replicate 2: 1.24e6
- outcome: inactive

Continued:
CG42238
- firefly reporter light, replicate 1: 1.20e6
- firefly reporter light, replicate 2: 5.00e5
- Renilla control light, replicate 1: 2.98e6
- Renilla control light, replicate 2: 1.64e6
- outcome: inactive

Cdlc2 #1
- firefly reporter light, replicate 1: 6.97e5
- firefly reporter light, replicate 2: 5.55e5
- Renilla control light, replicate 1: 1.62e6
- Renilla control light, replicate 2: 1.49e6
- outcome: inactive

Cdlc2 #2
- firefly reporter light, replicate 1: 7.75e5
- firefly reporter light, replicate 2: 9.21e5
- Renilla control light, replicate 1: 8.61e5
- Renilla control light, replicate 2: 8.68e5
- outcome: inactive

Aldh-III #1
- firefly reporter light, replicate 1: 7.58e5
- firefly reporter light, replicate 2: 9.05e5
- Renilla control light, replicate 1: 1.40e6
- Renilla control light, replicate 2: 1.98e6
- outcome: inactive

Aldh-III #2
- firefly reporter light, replicate 1: 9.89e5
- firefly reporter light, replicate 2: 9.08e5
- Renilla control light, replicate 1: 6.12e5
- Renilla control light, replicate 2: 8.87e5
- outcome: inactive

CG1161
- firefly reporter light, replicate 1: 1.05e6
- firefly reporter light, replicate 2: 9.38e5
- Renilla control light, replicate 1: 1.01e6
- Renilla control light, replicate 2: 1.10e6
- outcome: inactive
